Reference: patent publication US7186701B2, “Dehydrating agent and method for dehydrating moist article using the agent and dehydrated article obtained by the method” (Kabushiki Kaisha Hayashibara Seibutsu Kagaku Kenkyujo, priority 2001, dated 2007)

Experiment: Dehydration and pulverization of plain yogurt by non-reducing saccharide
Parameters: key: ◯: when the solids were easily pulverized; Δ: when the dehydration of the resulting mixtures was rather insufficient and the pulverization of solids was substantially difficult, though the resulting mixtures were solidified; when the dehydration of the resulting mixtures was insufficient and could not be pulverized by a pulverizer
Conditions: 25° C., 24 hours
Method: The anhydrous crystalline cyclotetrasaccharide; crystalline cyclotetrasaccharide, monohydrate; and anhydrous amorphous cyclotetrasaccharide were respectively prepared by the methods in Examples A-1, A-2, and A-3. As the crystalline α,α-trehalose, dihydrate, a commercially available “TREHA®” commercialized by Hayashibara Shoji Inc., Okayama, Japan, was used. The anhydrous crystalline α,α-trehalose and the anhydrous amorphous α,α-trehalose used in this experiment were prepared from a commercialized crystalline α,α-trehalose, dihydrate, using the methods disclosed in Examples for Reference 1 and 3 in Japanese Patent Kokai No. 170,221/94. To four parts by weight of a plain yogurt with a moisture content of about 77% was added either of the above saccharides in an amount of 11 to 16 parts by weight. The resultant mixtures were respectively placed in vats, allowed to stand at 25° C. for 24 hours, and macroscopically observed their change on standing. The judgement was conducted in such a manner of sufficiently dehydrating the resulting mixtures to be solidified, subjected to a pulverizer for pulverization, and evaluated as “◯”, when the solids were easily pulverized; “Δ”, when the dehydration of the resulting mixtures was rather insufficient and the pulverization of solids was substantially difficult, though the resulting mixtures were solidified; and “x”, when the dehydration of the resulting mixtures was insufficient and could not be pulverized by a pulverizer.

For `OC[C@H]1O[C@@H]2OC[C@H]3O[C@H](O[C@@H]4[C@@H](O)[C@@H](OC[C@H]5O[C@H](O[C@H]([C@H]2O)[C@@H]1O)[C@H](O)[C@@H](O)[C@@H]5O)O[C@H](CO)[C@H]4O)[C@H](O)[C@@H](O)[C@@H]3O` [Saccharide A, anhydrous crystalline cyclotetrasaccharide], the “dehydration and pulverization of plain yogurt” value (from here on “dehydration and pulverization”) (12 parts by weight of saccharide to four parts by weight of plain yogurt (moisture about 77%)) was “Δ”.

With `OC[C@H]1O[C@H](O[C@H]2O[C@H](CO)[C@@H](O)[C@H](O)[C@H]2O)[C@H](O)[C@@H](O)[C@@H]1O` [Saccharide E, anhydrous crystalline α,α-trehalose, reference compound] the “dehydration and pulverization” value (15 parts by weight of saccharide to four parts by weight of plain yogurt (moisture about 77%)) was “Δ”.

For “crystalline cyclotetrasaccharide, monohydrate [Saccharide B]”, the “dehydration and pulverization” value (14 parts by weight of saccharide to four parts by weight of plain yogurt (moisture about 77%)) was “Δ”.
